In publication PMC7327498, “Structural basis of semaphorin‐plexin cis interaction” (The EMBO Journal, 2020):
These are yes or no findings as the source states them, for the method shown. Binding seen in cells or lysates may run through a third protein.

The chains behind the UniProt entries cited, without tags or fusion partners. Where a name states a change or a piece, a line headed by the entry shows the natural chain unless it says otherwise.
UniProt Q24322: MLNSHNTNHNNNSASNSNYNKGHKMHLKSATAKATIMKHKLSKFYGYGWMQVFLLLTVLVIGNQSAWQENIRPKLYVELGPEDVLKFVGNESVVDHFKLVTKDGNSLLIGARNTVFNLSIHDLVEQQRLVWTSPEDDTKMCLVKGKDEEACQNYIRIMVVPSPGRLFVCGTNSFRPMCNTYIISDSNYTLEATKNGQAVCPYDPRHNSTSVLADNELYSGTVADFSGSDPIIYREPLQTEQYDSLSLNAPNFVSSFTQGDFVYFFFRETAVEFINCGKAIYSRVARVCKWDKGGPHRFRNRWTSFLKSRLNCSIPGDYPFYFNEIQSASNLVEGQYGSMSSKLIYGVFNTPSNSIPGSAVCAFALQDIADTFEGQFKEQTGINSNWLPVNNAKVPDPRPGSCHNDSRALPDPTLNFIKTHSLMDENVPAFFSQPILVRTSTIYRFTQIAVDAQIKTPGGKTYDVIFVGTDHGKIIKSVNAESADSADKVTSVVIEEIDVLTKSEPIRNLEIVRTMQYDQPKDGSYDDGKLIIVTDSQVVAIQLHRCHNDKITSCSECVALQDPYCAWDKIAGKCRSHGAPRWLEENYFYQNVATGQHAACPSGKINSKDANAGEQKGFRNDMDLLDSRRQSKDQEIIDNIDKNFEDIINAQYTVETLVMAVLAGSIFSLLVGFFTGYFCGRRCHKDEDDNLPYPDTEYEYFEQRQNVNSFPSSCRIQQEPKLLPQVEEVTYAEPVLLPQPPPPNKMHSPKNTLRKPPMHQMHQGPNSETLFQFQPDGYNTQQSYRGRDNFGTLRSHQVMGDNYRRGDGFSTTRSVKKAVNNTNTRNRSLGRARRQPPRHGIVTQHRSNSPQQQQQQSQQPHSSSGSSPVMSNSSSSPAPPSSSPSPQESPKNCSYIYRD

Target: T1, PlexA‐mClover (Drosophila melanogaster, UniProt Q9V491 28-1311)
T1 construct: Plexin A (PlexA), Drosophila melanogaster, residues 28–1,311: ectodomain followed by a transmembrane segment; not the purified PlexA‐mClover (residues 67–1,274) used as donor-only control in solution; also called FRET donor PlexA‐mClover; source: COS-7, transiently transfected, on live cells; not shown: mClover, C-terminal, kept
T1 sequence (looked up): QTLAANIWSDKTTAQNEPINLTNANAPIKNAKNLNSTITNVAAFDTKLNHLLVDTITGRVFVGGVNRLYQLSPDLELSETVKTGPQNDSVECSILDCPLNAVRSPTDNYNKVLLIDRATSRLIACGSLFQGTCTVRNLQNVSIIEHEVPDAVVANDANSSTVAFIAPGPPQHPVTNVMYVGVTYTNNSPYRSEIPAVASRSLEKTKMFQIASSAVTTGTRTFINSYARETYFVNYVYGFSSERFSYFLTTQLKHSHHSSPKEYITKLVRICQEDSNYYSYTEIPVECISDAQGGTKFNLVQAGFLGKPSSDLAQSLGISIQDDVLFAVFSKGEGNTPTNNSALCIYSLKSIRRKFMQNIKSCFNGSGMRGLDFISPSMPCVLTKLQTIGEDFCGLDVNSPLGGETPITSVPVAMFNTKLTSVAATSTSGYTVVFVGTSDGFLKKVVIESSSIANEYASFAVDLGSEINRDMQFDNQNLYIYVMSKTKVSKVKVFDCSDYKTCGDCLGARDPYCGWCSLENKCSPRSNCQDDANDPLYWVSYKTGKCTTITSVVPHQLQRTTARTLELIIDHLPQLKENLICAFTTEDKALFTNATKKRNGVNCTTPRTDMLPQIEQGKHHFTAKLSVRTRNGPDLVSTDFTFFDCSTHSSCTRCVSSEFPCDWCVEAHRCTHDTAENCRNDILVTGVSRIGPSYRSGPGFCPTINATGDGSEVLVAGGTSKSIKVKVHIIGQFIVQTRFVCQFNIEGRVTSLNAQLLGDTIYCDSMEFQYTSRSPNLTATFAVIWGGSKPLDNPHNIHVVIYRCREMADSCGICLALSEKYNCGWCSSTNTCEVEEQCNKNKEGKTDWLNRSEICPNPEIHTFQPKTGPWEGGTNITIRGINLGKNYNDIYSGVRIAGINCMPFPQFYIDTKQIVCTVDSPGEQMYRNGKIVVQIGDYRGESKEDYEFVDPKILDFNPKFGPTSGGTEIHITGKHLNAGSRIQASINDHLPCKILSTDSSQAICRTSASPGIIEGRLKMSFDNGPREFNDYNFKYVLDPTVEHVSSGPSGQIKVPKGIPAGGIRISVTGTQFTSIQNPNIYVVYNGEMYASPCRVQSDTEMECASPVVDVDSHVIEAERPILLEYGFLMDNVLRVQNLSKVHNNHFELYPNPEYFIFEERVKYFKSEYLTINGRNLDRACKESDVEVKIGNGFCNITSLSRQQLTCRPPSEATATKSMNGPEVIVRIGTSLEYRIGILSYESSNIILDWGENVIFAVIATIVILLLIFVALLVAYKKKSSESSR
Test: FRET or BRET; FRET-FLIM in live COS-7 cells transiently co-transfected with PlexA‐mClover (donor) and semaphorin‐mRuby2 (acceptor), cis on one cell surface, 37°C; donor alone τav 2.72 ± 0.03 ns

For “Sema1a‐mRuby2 (from UniProt Q24322) (ligand)”, the binding was “no binding”.
